Taken from: PubChem BioAssay AID504795 (Drosophila RNAi Screening Center, 2011)
Only reagents picked out of a larger screen are listed. 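Every listed dsRNA shows some phenotype; how reagents were selected for listing is not stated.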 A plus sign joins genes that one reagent is predicted to hit. Reagent sequences are not shown.

Screen: 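Knock-downs causing abnormal branching, bundling, swelling or growth of cultured neurons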 (primary screen)
System: primary Drosophila neurons and glia
Reagents: long dsRNA against Drosophila genes, 250 ng dsRNA per well
Time to read-out: one week
Measurement: 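Descriptive morphology terms assigned by visual inspection of live automated images of GFP-marked cells, taken one week after adding 250 ng dsRNA per well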

For Sema1a (GeneID 34192) [DRSC03433] the deposit lists phenotype seen, replicate 1 = axon bundles split apart.
After knock-down of CG12464 (GeneID 36516) [DRSC06156], the screen gave phenotype seen, replicate 1 = too many neurite branches.
Depletion of CYLD (GeneID 34380) [DRSC02870] gave: phenotype seen, replicate 1 = sheet-like cell extensions.
Silencing of Crg-1 (GeneID 43900) [DRSC22882] gave: phenotype seen, replicate 1 = axon bundles split apart.
Knock-down of Sox21b (GeneID 39569) [DRSC22788] gave: phenotype seen, replicate 1 = reduced axon outgrowth.
For RpL24-like (GeneID 41372) [DRSC16111], the entry reads phenotype seen, replicate 1 = abnormal cell clusters.
CG11294 (GeneID 31807) [DRSC17777] scored phenotype seen, replicate 1 = sheet-like cell extensions.
Silencing of CG30394 (GeneID 37437) [DRSC04074] came out at: phenotype seen, replicate 1 = abnormal cell clusters.
Against Gos28 (GeneID 248102) [DRSC16292] the deposit lists phenotype seen, replicate 1 = sheet-like cell extensions.
With knock-down of Atg12 (GeneID 39383) [DRSC09803] the results were phenotype seen, replicate 1 = axon bundles split apart.
After knock-down of fl(2)d (GeneID 36527) [DRSC07620], the record shows phenotype seen, replicate 1 = abnormal cell clusters.
After knock-down of CG17048 (GeneID 36479) [DRSC06649], the screen gave phenotype seen, replicate 1 = reduced axon outgrowth.
Against vig (GeneID 34885) [DRSC03630], the entry reads phenotype seen, replicate 1 = axon bundles split apart.
With knock-down of CG3603 (GeneID 31289) [DRSC18317], the record shows phenotype seen, replicate 1 = too many neurite branches.
Silencing of rols (GeneID 39368) [DRSC09873] came out at: phenotype seen, replicate 1 = abnormal cell clusters.
Silencing of CG33655 (GeneID 8674081) [DRSC03858] came out at: phenotype seen, replicate 1 = abnormal cell clusters.
After knock-down of Paip2 (GeneID 41591) [DRSC14504] the results were phenotype seen, replicate 1 = too many neurite branches.
After knock-down of CG14606 (GeneID 40866) [DRSC12550], the screen gave phenotype seen, replicate 1 = reduced axon outgrowth.
Depletion of BtbVII (GeneID 38376) [DRSC08151] gave: phenotype seen, replicate 1 = axon bundles split apart.
RpL28 + snoRNA:Or-CD12 [DRSC08293] showed phenotype seen, replicate 1 = reduced axon outgrowth.
Dic4 (GeneID 40039) [DRSC10317] scored phenotype seen, replicate 1 = reduced axon outgrowth.
Depletion of RpL24 (GeneID 34754) [DRSC03185] gave: phenotype seen, replicate 1 = too many neurite branches.
Depletion of CG15605 (GeneID 36933) [DRSC06558] resulted in: phenotype seen, replicate 1 = sheet-like cell extensions.
For CG2656 (GeneID 40857) [DRSC12584], the values are phenotype seen, replicate 1 = axon bundles split apart.
After knock-down of CG7362 (GeneID 41787) [DRSC16236], the record shows phenotype seen, replicate 1 = abnormal cell clusters.
For CG17637 (GeneID 40275) [DRSC11740] the deposit lists phenotype seen, replicate 1 = reduced axon outgrowth.
For Rgk1 (retired record) (GeneID 37219) [DRSC07344], the entry reads phenotype seen, replicate 1 = axon bundles split apart.
sicily (GeneID 32151) [DRSC19704] gave phenotype seen, replicate 1 = fewer cells.
CG17362 (GeneID 39545) [DRSC10267] showed phenotype seen, replicate 1 = sheet-like cell extensions.
With knock-down of RpL7A (GeneID 31588) [DRSC18709], the record shows phenotype seen, replicate 1 = abnormal cell clusters.
CG5011 (GeneID 50196) [DRSC00039] showed phenotype seen, replicate 1 = abnormal cell clusters.
Knock-down of sha (GeneID 36213) [DRSC06331] resulted in: phenotype seen, replicate 1 = beaded; swollen axons.
With knock-down of beta3GalTII (GeneID 35848) [DRSC07253] the results were phenotype seen, replicate 1 = sheet-like cell extensions.
For RPA1 (GeneID 40972) [DRSC16830], the values are phenotype seen, replicate 1 = too many neurite branches.
Tengl4 (GeneID 41321) [DRSC15620] scored phenotype seen, replicate 1 = axon bundles split apart.
For CG5890 (GeneID 43126) [DRSC15909] the deposit lists phenotype seen, replicate 1 = abnormal cell clusters.
Against CG1513 (GeneID 36028) [DRSC06554], the entry reads phenotype seen, replicate 1 = axon bundles split apart.
Rpn6 (GeneID 36638) [DRSC07541] scored phenotype seen, replicate 1 = axon bundles split apart.
After knock-down of CG33257 (GeneID 2768960) [DRSC09917], the record shows phenotype seen, replicate 1 = reduced axon outgrowth.
Against CG15107 (GeneID 59128) [DRSC06534], the entry reads phenotype seen, replicate 1 = fewer cells.
Silencing of CG6034 (GeneID 39974) [DRSC10572] resulted in: phenotype seen, replicate 1 = sheet-like cell extensions.
Silencing of CG3176 + CR18166 + CG32817 [DRSC18288] resulted in: phenotype seen, replicate 1 = axon bundles split apart.
stan (GeneID 36125) [DRSC07697] scored phenotype seen, replicate 1 = too many neurite branches.
Knock-down of Lcp3 (GeneID 35819) [DRSC07457] resulted in: phenotype seen, replicate 1 = fewer cells.
Depletion of Gtpx (GeneID 38413) [DRSC08221] came out at: phenotype seen, replicate 1 = too many neurite branches.
Smvt (GeneID 43744) [DRSC15426] scored phenotype seen, replicate 1 = too many neurite branches.
Letm1 (GeneID 37912) [DRSC04476] showed phenotype seen, replicate 1 = axon bundles split apart.
VhaAC39-1 (GeneID 31342) [DRSC18242] gave phenotype seen, replicate 1 = abnormal cell clusters.
With knock-down of CG3587 (GeneID 31160) [DRSC18541], the screen gave phenotype seen, replicate 1 = reduced axon outgrowth.
Depletion of Cka (GeneID 34096) [DRSC22858] resulted in: phenotype seen, replicate 1 = axon bundles split apart.
After knock-down of CG13108 (GeneID 34240) [DRSC02206], the screen gave phenotype seen, replicate 1 = abnormal cell clusters.
For Eb1 (GeneID 35584) [DRSC05016], the entry reads phenotype seen, replicate 1 = sheet-like cell extensions.
After knock-down of CG8136 (GeneID 41037) [DRSC16385], the record shows phenotype seen, replicate 1 = reduced axon outgrowth.
Against mbl (GeneID 36945) [DRSC06449], the entry reads phenotype seen, replicate 1 = reduced axon outgrowth.
mbl (GeneID 36945) [DRSC07651] showed phenotype seen, replicate 1 = abnormal cell clusters.
Silencing of RpL35A (GeneID 40654) [DRSC12302] came out at: phenotype seen, replicate 1 = too many neurite branches.
For CG31463 (GeneID 40978) [DRSC14346] the deposit lists phenotype seen, replicate 1 = beaded; swollen axons; phenotype seen, replicate 2 = axon bundles split apart.
With knock-down of CG15553 (GeneID 43677) [DRSC15091] the results were phenotype seen, replicate 1 = reduced axon outgrowth.
Depletion of GluClalpha (GeneID 42350) [DRSC16680] came out at: phenotype seen, replicate 1 = too many neurite branches.
For Lerp (GeneID 43223) [DRSC14750], the values are phenotype seen, replicate 1 = axon bundles split apart.
Depletion of Lerp (GeneID 43223) [DRSC14751] gave: phenotype seen, replicate 1 = abnormal cell clusters.

Part of the list above in another layout:
{"gene knocked down": "Eb1 (GeneID 35584)", "DRSC id": "DRSC05016", "phenotype seen, replicate 1": "sheet-like cell extensions"}
{"gene knocked down": "CG8136 (GeneID 41037)", "DRSC id": "DRSC16385", "phenotype seen, replicate 1": "reduced axon outgrowth"}
{"gene knocked down": "mbl (GeneID 36945)", "DRSC id": "DRSC06449", "phenotype seen, replicate 1": "reduced axon outgrowth"}
{"gene knocked down": "mbl (GeneID 36945)", "DRSC id": "DRSC07651", "phenotype seen, replicate 1": "abnormal cell clusters"}
{"gene knocked down": "RpL35A (GeneID 40654)", "DRSC id": "DRSC12302", "phenotype seen, replicate 1": "too many neurite branches"}
{"gene knocked down": "CG31463 (GeneID 40978)", "DRSC id": "DRSC14346", "phenotype seen, replicate 1": "beaded; swollen axons", "phenotype seen, replicate 2": "axon bundles split apart"}
{"gene knocked down": "CG15553 (GeneID 43677)", "DRSC id": "DRSC15091", "phenotype seen, replicate 1": "reduced axon outgrowth"}
{"gene knocked down": "GluClalpha (GeneID 42350)", "DRSC id": "DRSC16680", "phenotype seen, replicate 1": "too many neurite branches"}
{"gene knocked down": "Lerp (GeneID 43223)", "DRSC id": "DRSC14750", "phenotype seen, replicate 1": "axon bundles split apart"}
{"gene knocked down": "Lerp (GeneID 43223)", "DRSC id": "DRSC14751", "phenotype seen, replicate 1": "abnormal cell clusters"}
